No constants are given. Whether binding was seen depends on the method and setting. In cells and extracts the contact can be indirect. These calls come from enrichment with a bait or labelling near it, and not all partners need be listed.
Biological target: T1, IVNS1ABP, wild type (endogenous in isogenic control NPCs) (human (endogenous in iPSC-derived NPCs)) (UniProt Q9Y6Y0)
T1 sequence: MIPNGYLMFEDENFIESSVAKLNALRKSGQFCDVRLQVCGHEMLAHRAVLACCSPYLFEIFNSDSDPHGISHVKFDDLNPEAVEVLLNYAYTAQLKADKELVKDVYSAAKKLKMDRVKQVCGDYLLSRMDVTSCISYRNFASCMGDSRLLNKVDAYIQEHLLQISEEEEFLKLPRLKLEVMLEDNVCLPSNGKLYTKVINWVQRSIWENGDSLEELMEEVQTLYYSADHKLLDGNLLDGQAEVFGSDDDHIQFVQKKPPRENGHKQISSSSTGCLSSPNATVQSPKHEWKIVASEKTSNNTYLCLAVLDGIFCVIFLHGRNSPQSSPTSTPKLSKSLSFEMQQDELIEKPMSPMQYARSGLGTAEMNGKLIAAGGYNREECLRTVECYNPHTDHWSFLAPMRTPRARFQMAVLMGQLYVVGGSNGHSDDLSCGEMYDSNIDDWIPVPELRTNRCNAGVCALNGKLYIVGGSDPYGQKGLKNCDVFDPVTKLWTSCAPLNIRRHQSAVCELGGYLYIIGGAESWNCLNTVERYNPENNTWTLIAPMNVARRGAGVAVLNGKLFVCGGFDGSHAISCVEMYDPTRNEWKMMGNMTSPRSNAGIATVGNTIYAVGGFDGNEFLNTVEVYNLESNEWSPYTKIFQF
Test: affinity purification with mass spectrometry

Chains of the proteins cited; added tags and fusions are not shown.
UniProt Q16643: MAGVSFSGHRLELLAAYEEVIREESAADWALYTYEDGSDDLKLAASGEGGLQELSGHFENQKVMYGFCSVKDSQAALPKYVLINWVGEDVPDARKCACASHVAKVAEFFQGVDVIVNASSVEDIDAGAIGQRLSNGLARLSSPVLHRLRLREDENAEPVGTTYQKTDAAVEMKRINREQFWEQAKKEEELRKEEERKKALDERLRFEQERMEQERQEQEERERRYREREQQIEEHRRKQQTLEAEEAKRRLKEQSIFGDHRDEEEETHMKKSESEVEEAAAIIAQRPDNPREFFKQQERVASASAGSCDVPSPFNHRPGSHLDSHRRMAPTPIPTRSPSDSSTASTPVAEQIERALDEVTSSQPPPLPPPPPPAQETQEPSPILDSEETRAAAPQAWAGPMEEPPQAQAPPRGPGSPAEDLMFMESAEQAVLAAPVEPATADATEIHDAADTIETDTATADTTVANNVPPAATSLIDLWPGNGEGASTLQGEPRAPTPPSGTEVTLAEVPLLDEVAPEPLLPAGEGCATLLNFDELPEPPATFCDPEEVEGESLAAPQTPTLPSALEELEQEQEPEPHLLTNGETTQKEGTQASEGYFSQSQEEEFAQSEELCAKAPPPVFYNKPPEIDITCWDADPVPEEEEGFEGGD
UniProt P09493: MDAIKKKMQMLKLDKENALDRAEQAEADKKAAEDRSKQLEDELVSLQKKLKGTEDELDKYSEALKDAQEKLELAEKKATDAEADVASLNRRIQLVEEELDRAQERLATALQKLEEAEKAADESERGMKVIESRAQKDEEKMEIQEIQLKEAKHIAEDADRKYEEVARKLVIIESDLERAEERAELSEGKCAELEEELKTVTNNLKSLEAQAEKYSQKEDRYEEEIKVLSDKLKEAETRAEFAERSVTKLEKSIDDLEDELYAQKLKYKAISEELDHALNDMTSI
UniProt P60660: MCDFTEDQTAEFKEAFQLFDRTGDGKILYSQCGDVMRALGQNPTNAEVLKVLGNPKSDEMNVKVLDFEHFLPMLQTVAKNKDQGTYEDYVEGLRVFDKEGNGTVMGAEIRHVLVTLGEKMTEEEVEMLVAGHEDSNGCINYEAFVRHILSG
UniProt P14649: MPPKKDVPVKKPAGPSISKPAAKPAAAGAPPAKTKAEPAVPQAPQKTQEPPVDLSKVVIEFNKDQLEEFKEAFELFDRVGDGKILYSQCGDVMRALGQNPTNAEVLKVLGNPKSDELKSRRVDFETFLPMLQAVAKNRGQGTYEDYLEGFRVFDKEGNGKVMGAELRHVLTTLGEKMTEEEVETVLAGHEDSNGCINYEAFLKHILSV
UniProt P35579: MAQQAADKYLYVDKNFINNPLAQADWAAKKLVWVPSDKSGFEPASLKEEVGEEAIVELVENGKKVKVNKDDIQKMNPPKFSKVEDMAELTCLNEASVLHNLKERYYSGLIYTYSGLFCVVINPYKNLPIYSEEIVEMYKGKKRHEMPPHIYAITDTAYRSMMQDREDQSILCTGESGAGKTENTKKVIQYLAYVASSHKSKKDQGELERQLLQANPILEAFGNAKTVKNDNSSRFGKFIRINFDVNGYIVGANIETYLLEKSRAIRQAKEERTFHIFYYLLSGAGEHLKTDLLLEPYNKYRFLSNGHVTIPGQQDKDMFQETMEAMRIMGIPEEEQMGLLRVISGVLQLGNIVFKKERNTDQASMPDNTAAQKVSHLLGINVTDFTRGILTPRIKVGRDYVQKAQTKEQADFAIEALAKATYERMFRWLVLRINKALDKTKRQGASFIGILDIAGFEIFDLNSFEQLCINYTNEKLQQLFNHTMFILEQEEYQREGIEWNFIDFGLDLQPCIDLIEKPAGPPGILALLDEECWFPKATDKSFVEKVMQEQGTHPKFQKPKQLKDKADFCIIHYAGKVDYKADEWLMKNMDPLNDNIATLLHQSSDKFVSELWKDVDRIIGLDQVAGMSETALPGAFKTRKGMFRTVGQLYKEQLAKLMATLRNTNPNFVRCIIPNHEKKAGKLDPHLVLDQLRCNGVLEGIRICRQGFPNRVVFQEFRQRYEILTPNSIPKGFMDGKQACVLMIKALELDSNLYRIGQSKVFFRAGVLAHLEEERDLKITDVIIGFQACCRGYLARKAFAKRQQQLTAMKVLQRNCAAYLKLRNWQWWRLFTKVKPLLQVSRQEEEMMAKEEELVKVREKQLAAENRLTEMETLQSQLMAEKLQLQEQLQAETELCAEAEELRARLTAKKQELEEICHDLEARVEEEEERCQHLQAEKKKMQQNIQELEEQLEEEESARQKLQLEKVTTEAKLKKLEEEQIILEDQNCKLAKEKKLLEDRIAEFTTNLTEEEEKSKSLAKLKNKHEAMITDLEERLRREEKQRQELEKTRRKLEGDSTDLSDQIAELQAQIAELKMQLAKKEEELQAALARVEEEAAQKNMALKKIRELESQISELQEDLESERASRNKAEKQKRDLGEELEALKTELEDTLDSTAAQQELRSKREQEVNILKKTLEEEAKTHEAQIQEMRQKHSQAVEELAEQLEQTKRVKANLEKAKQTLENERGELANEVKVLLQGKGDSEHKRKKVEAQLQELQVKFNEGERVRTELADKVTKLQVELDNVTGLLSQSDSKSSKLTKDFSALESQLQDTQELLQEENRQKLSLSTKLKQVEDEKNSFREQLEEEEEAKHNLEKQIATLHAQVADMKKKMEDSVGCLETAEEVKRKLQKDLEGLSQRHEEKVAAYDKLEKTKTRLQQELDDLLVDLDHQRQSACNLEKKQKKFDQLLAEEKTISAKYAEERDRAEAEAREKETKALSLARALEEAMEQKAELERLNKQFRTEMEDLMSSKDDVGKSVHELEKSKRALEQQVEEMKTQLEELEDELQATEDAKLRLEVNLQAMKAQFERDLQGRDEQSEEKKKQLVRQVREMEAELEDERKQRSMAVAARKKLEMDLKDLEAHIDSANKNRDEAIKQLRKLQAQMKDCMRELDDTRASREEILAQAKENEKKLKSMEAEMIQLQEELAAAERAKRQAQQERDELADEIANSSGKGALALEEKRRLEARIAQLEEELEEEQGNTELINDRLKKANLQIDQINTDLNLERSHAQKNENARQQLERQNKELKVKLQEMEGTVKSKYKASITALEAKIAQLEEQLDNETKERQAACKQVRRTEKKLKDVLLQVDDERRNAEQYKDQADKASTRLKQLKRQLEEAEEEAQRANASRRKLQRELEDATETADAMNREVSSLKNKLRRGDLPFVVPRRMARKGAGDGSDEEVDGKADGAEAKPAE
UniProt O14950: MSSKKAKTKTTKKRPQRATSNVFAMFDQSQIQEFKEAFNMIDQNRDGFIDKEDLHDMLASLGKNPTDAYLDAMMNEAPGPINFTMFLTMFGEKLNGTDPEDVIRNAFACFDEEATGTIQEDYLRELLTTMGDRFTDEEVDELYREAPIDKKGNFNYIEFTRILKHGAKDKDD
UniProt P47756: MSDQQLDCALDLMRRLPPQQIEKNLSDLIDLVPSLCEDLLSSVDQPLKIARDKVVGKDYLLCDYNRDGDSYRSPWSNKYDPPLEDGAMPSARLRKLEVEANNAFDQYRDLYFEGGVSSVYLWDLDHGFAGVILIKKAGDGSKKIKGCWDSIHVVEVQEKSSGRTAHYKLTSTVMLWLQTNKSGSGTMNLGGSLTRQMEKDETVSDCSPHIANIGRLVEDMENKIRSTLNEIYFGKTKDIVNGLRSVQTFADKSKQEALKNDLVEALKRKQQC
UniProt P35580: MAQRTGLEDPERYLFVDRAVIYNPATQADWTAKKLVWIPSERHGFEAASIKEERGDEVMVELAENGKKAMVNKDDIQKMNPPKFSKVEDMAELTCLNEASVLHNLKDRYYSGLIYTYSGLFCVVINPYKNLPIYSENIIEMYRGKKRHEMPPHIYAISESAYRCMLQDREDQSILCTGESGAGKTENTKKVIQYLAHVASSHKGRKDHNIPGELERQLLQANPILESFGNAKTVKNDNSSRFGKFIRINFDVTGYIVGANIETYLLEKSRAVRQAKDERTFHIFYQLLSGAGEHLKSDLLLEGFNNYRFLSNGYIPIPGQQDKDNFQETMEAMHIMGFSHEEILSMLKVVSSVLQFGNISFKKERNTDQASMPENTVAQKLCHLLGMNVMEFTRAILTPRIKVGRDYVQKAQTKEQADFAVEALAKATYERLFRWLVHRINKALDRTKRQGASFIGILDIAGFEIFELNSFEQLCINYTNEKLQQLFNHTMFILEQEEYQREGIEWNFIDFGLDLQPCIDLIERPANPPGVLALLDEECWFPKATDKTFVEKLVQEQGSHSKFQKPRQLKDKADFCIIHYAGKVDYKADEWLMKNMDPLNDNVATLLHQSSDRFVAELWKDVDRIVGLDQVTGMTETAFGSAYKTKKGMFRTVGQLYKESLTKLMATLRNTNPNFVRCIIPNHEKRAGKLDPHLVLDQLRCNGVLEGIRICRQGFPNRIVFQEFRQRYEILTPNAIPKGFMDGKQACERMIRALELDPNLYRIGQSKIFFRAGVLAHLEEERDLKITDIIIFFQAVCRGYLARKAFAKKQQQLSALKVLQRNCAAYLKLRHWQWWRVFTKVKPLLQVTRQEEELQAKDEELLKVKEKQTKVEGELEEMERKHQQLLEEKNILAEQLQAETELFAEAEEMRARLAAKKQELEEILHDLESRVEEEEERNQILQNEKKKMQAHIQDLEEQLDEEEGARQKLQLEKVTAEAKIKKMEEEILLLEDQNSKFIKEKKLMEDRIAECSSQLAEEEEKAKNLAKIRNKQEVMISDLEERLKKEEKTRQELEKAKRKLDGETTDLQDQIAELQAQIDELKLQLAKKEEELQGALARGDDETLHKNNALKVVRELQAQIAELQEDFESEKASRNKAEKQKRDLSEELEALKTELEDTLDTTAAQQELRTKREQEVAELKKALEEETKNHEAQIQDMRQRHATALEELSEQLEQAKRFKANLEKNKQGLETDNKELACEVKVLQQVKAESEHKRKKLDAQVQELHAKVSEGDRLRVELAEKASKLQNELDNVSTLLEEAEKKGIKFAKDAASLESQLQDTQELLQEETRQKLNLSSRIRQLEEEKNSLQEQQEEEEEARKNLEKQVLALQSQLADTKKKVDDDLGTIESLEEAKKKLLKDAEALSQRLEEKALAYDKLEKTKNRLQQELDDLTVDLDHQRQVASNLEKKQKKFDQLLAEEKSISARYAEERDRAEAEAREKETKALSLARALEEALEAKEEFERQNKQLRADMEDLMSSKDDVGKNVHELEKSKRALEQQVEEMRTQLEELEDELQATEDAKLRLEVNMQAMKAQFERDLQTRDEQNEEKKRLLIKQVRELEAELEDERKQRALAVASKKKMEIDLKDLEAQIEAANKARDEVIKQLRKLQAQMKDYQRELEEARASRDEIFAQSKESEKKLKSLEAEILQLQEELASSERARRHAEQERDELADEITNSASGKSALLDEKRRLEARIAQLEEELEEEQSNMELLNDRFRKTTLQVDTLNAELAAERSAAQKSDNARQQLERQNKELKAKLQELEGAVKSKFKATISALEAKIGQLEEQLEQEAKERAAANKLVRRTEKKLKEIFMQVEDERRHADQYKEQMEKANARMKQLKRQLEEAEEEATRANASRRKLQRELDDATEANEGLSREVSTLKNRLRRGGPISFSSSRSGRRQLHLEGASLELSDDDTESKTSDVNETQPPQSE

DBN1 (Drebrin1) (from UniProt Q16643 1-649)
binding: binds

TPM1 (from UniProt P09493 1-284)
binding: binds

MYL6 (from UniProt P60660 1-151)
binding: binds

MYL6B (from UniProt P14649 1-208)
binding: binds

MYH9 (from UniProt P35579 1-1960)
binding: binds

MYL12B (from UniProt O14950 1-172)
binding: binds

CAPZB (from UniProt P47756 1-272)
binding: binds

MYH10 (from UniProt P35580 1-1976)
binding: binds

— article doi:10.1101/2024.10.12.24315363
